We go through 53 compounds from PubChem BioAssay AID651582 (Sanford-Burnham Center for Chemical Genomics, 2012).

The structures appear in SMILES notation. This is one part of the list.

A short description of the assay: inhibitors of triacylglycerol accumulation, primary screen, cell-based, uHTS, fluorescence, H9c2 (AID 651582). Conditions: H9c2 cells, Nile Red lipid (TAG) fluorescence; DAPI nuclei count viability; at 12.5 µM; cells loaded with 200 µM oleic acid.
Take `O=[N+]([O-])c1cc([N+](=O)[O-])c(Nc2cccnc2)c([N+](=O)[O-])c1`: the DAPI activity (viability loss) is -0.071%.
The value for `O=[As](O)(c1ccc(O)cc1)c1ccccc1O` was 8.1%; that for `COc1cc(C(=O)NCC2(N3CCOCC3)CCCCC2)ccc1OCC(C)C` was -5.67%; that for `O=[N+]([O-])c1ccc(-c2cc([N+](=O)[O-])c(O)c([N+](=O)[O-])c2)cc1` was -12.6%.
Turning to `Cc1cccc(C)c1OP(C)(N)=O` (stereo not drawn), the DAPI activity (viability loss) is -7.99%.
The value for `Cc1ccc2nc3c(c(C)c2c1)CC(C(Cl)Cl)S3` (stereo not drawn) was 6.23%.
The value for `O=[N+]([O-])c1ccc2c(c1)C=Nc1ccccc1O2` was -2.78%; that for `ClCCSc1nnc(-c2cccnc2)o1` was 6.04%.
In the case of `CC(C)c1ccc(OP(=O)(Nc2ccccn2)Oc2ccccc2F)cc1` (stereo not drawn), the DAPI activity (viability loss) is -9.99%.
The value for `Cc1ccc(NP(C)(=O)Oc2ccccc2)c(C)c1` (stereo not drawn) was -16.2%; that for `COC(=O)C1(C)COP(=O)(N2CCCCCC2)OC1` (stereo not drawn) was -6.3%; that for `O=C(OC1CN2CCC1CC2)c1cccc2[nH]cnc12` (stereo not drawn) was 5.94%.
The value for `CCN(CC)C(=S)SC(NC=O)C(Cl)(Cl)Cl` (stereo not drawn) was -59%.
The value for `COc1ccccc1OP(C)(=O)Nc1cc(Cl)ccc1C` (stereo not drawn) was 4.69%; that for `O=[N+]([O-])c1cc([N+](=O)[O-])c(-c2ccn[nH]2)s1` was -1.35%; that for `COc1ccc(OP(C)(=O)Nc2cccc(F)c2)cc1` (stereo not drawn) was 7.79%.
As to `Cc1cc(C)cc(OP(C)(N)=O)c1` (stereo not drawn), the DAPI activity (viability loss) amounted to 1.28%.
Under `Cc1c2c(nc3ccccc13)SC(C(Cl)Cl)C2` (stereo not drawn) stands 20.1%; under `O=C(OC1CN2CCC1CC2)C12CC3CC(CC(C3)C1)C2` (stereo not drawn), 18%.
The value for `CCN(CC)CCCOC(=O)C(O)(c1ccccc1)c1ccccc1` was -5.2%.
Under `O=P1(N(CCCl)CCCl)OCCCN1CCCl` (stereo not drawn) stands 5.83%; under `O=P1(N(CCCl)CCCl)Nc2ccccc2N1`, -5.57%.
As for `COc1ccc2nc(NP(=O)(c3ccccc3)c3ccccc3)sc2c1`, the DAPI activity (viability loss) was determined as 3.96%.
The value for `COc1cc(I)ccc1[As](=O)(O)O` was -3.44%; that for `O=[N+]([O-])c1cc(Oc2ccc([N+](=O)[O-])cc2C(F)(F)F)cc([N+](=O)[O-])c1` was 6.3%; that for `COc1ccc(N/C(=N/P(=O)(N2CCOCC2)N2CCOCC2)N2CCOCC2)cc1` was 0.541%.
`Cc1ccc(Nc2c([N+](=O)[O-])cc([N+](=O)[O-])cc2[N+](=O)[O-])cc1`: the DAPI activity (viability loss) was -18.2%.
Under `CP(=O)(Nc1ccc(SC(F)(F)F)cc1)Oc1ccc(Cl)cc1` (stereo not drawn) stands 0.555%; under `CP(=O)(Oc1ccccc1)OC(c1ccccc1)C(F)(F)F` (stereo not drawn), -7%; under `CCc1ccc(OP(C)(=O)N2CCN(c3ccc([N+](=O)[O-])cc3)CC2)cc1` (stereo not drawn), 3.5%.
With `O=C(COc1ccccc1)OC1CN2CCC1CC2` (stereo not drawn), the DAPI activity (viability loss) is -0.681%.
Consider `CCOP(C)(=S)SCC(=O)NC(C)C(=O)O` (stereo not drawn), for which the DAPI activity (viability loss) turned out to be 4%.
The value for `CSc1ccc(Nc2c([N+](=O)[O-])cc([N+](=O)[O-])cc2[N+](=O)[O-])cc1` was -3.88%; that for `CCOC(=O)c1ccc(NC(=O)C(C)(CCl)SC)cc1` (stereo not drawn) was -3.91%; that for `O=[N+]([O-])c1cc([N+](=O)[O-])c(O)c([N+](=O)[O-])c1.c1ccc(Oc2ccncc2)cc1` was -7.58%.
Take `CCC(C)N(CC(C)C)C(=S)SC(NC(C)=O)C(Cl)(Cl)Cl` (stereo not drawn): the DAPI activity (viability loss) is -6.16%.
The value for `CCOC(=O)Nc1ccc([As](=O)(O)O)c(O)c1` was -7.49%; that for `O=C(O)C(=O)c1ccc(N(CCCl)CCCl)cc1.c1ccc(Nc2ccccc2)cc1` was -1.28%.
In the case of `CC1CCNP(=O)(N(CCCl)CCCl)O1` (stereo not drawn), the DAPI activity (viability loss) was -0.183%.
Under `COP(=O)(OC)N1CC1c1ccccc1` (stereo not drawn) stands 7.74%; under `CP(=S)(Nn1cnnc1)Oc1ccccc1` (stereo not drawn), 0.759%; under `O=P(Nc1ccccn1)(c1cccc2ccccc12)c1cccc2ccccc12`, -10.2%.
Under `Cc1cc(SC(NC=O)C(Cl)(Cl)Cl)ncn1` (stereo not drawn) stands -1.76%; under `COc1ccccc1OP(C)(=O)Nc1ccccc1` (stereo not drawn), -9.96%.
As to `CC1CCC(C(C)C)C(OP(=O)(Nc2ccccn2)c2ccccc2)C1` (stereo not drawn), the DAPI activity (viability loss) stood at 12.6%.
Under `CN(C)C1(CNC(=O)c2ccc(S(C)(=O)=O)cc2)CCCCC1` stands -10.5%.
Under `CC1=C2N=C(C=C3N=C(C(C)=C4[N-][C@@](C)([C@@H]5N=C1[C@](C)(CCC(=O)NC[C@@H](C)OP(=O)([O-])O[C@H]1[C@@H](O)[C@@H](n6cnc7cc(C)c(C)cc76)O[C@@H]1CO)[C@H]5CC(N)=O)[C@@](C)(CC(N)=O)[C@@H]4CCC(N)=O)[C@@](C)(CC(N)=O)[C@@H]3CCC(N)=O)C(C)(C)[C@@H]2CCC(N)=O.[C-]#N.[Co+3]` stands -2.55%.
The value for `CCOC(=O)C(CC)C1=NC(C)(C)Cc2ccccc21.O=[N+]([O-])c1cc([N+](=O)[O-])c(O)c([N+](=O)[O-])c1` (stereo not drawn) was 5.64%.
Turning to `O=C(/C=C/c1ccccc1)OC1CN2CCC1CC2` (stereo not drawn), the DAPI activity (viability loss) was -9.81%.
The value for `CCCC1OP(=O)(Nc2ccccc2)OCC1CC` (stereo not drawn) was 7.93%; that for `O=P1(Nc2ncccn2)COc2ccccc2OC1` was 6.06%.
The value for `COc1ccccc1OP(C)(=O)Nc1c(C)cccc1C` (stereo not drawn) was 12.6%; that for `CN1CCCCC1COC(=O)C1(O)c2ccccc2CCc2ccccc21` (stereo not drawn) was -10.7%.
